Measurements from article doi:10.1101/2023.05.15.540505.

Protein sequences, listed by entry. Tags and fused reporters are not part of them.
UniProt O95714: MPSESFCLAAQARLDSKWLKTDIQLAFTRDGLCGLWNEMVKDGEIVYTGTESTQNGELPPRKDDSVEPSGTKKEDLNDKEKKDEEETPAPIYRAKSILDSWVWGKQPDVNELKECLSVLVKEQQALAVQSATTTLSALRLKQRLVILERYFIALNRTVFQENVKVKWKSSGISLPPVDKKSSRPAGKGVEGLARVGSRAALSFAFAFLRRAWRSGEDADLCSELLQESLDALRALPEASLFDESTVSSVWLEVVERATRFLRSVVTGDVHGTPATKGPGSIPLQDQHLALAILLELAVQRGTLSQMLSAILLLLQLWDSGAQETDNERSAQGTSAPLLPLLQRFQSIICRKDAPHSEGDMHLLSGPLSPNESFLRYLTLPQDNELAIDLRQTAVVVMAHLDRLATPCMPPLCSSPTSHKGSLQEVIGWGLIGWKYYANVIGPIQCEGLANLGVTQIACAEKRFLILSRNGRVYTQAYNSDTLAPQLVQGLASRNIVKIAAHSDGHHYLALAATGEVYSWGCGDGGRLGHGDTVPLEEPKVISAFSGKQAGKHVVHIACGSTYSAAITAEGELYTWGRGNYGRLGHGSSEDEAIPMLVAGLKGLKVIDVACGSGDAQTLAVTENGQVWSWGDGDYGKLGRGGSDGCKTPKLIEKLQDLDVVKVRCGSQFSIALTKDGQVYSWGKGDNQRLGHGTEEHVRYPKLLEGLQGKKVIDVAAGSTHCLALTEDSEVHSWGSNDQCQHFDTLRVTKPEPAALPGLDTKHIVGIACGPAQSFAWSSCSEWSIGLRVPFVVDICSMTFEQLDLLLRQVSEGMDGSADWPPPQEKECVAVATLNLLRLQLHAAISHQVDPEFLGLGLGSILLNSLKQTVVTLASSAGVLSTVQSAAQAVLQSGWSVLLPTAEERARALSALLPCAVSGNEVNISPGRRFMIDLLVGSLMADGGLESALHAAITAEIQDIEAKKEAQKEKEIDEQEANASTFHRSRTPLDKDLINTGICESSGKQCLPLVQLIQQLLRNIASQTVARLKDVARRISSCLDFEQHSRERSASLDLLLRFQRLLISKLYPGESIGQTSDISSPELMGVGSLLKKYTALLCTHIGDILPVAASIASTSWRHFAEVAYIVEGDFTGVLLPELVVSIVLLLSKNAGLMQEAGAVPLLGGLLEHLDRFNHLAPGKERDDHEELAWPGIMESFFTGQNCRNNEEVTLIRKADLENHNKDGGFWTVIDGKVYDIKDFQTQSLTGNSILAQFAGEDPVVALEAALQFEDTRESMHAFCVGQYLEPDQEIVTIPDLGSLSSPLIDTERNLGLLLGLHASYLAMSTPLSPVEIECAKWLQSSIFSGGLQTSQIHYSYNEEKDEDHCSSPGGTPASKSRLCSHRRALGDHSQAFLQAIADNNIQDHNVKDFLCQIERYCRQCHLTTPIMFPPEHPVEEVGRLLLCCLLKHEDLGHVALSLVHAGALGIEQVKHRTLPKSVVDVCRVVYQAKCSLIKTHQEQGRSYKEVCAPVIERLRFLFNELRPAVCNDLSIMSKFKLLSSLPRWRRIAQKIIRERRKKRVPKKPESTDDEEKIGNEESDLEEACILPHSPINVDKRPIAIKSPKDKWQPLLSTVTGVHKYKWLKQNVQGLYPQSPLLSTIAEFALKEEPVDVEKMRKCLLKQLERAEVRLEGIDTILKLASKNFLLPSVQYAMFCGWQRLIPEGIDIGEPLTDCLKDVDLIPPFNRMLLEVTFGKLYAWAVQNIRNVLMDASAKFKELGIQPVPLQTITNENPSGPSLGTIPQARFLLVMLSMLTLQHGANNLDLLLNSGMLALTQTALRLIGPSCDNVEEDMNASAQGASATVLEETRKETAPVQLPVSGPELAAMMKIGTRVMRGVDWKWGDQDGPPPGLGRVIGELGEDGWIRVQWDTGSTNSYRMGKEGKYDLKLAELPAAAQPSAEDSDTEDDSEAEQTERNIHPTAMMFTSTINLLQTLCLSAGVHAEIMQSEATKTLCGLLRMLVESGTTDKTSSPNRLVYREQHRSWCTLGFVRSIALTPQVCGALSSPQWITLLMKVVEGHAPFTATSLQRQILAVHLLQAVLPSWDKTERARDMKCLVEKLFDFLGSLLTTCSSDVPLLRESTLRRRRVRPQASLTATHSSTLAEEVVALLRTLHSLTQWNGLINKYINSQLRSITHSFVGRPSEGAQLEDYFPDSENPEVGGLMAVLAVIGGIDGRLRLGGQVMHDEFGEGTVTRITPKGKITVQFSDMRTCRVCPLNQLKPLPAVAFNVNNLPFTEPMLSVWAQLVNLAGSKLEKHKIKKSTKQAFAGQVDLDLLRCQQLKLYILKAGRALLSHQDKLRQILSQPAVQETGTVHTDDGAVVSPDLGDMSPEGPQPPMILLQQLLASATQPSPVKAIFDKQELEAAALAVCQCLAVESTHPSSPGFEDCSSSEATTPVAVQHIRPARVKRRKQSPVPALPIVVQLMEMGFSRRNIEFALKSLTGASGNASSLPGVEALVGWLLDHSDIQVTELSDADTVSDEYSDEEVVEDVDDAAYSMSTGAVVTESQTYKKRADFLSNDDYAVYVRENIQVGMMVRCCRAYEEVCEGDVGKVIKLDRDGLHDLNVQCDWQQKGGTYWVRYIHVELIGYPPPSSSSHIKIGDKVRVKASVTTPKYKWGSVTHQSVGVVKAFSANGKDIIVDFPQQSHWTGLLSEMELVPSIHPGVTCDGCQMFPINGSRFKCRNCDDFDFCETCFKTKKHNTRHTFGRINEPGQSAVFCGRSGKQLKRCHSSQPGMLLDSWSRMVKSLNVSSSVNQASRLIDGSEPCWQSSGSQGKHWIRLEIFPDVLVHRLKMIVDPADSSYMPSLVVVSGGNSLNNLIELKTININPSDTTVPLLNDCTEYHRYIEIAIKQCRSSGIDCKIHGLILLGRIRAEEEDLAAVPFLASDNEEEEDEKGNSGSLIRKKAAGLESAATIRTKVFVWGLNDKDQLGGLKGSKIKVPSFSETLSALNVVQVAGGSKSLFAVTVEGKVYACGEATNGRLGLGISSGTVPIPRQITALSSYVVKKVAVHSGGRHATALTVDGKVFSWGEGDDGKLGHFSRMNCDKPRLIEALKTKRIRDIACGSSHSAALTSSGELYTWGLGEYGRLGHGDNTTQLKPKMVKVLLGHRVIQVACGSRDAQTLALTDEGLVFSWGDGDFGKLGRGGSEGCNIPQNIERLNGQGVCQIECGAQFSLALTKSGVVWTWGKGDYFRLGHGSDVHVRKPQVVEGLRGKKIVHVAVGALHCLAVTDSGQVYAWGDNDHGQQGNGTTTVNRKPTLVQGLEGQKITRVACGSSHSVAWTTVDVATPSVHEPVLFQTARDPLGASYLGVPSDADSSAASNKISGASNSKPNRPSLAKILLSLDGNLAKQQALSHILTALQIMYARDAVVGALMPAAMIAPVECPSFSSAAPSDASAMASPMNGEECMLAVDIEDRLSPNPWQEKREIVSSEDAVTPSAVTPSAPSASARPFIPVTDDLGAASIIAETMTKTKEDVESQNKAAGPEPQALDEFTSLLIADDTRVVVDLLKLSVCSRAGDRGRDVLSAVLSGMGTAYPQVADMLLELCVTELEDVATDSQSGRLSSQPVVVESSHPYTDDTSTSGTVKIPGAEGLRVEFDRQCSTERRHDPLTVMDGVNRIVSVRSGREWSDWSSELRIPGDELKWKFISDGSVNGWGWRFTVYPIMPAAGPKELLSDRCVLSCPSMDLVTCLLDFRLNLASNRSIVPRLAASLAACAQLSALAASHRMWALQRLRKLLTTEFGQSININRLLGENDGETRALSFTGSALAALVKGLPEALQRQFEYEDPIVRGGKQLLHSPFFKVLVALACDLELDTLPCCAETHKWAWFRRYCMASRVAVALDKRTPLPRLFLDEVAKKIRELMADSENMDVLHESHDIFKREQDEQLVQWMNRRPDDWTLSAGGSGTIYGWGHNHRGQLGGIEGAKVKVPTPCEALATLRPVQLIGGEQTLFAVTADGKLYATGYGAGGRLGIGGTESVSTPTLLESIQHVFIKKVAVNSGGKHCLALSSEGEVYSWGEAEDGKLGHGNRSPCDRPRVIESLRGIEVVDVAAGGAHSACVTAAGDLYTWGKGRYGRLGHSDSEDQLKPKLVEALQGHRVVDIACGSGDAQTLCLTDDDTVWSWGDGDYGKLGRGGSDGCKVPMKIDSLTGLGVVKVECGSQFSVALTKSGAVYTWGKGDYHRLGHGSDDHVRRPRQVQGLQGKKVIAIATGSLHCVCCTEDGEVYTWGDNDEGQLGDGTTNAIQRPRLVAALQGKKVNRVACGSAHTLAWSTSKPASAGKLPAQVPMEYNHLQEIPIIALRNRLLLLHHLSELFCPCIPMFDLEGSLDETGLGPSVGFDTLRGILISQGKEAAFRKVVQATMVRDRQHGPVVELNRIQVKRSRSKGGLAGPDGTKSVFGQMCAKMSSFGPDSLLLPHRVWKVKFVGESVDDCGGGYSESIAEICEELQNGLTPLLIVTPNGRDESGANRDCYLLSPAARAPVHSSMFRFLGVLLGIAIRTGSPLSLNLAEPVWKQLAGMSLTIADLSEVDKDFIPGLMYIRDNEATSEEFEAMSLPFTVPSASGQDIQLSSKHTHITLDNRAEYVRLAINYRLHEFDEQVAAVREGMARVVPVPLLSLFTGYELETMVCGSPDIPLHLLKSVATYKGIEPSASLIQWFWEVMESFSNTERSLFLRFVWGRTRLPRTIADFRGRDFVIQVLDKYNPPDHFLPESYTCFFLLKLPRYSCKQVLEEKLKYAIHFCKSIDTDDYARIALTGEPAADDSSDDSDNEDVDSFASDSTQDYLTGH
UniProt Q5VT52: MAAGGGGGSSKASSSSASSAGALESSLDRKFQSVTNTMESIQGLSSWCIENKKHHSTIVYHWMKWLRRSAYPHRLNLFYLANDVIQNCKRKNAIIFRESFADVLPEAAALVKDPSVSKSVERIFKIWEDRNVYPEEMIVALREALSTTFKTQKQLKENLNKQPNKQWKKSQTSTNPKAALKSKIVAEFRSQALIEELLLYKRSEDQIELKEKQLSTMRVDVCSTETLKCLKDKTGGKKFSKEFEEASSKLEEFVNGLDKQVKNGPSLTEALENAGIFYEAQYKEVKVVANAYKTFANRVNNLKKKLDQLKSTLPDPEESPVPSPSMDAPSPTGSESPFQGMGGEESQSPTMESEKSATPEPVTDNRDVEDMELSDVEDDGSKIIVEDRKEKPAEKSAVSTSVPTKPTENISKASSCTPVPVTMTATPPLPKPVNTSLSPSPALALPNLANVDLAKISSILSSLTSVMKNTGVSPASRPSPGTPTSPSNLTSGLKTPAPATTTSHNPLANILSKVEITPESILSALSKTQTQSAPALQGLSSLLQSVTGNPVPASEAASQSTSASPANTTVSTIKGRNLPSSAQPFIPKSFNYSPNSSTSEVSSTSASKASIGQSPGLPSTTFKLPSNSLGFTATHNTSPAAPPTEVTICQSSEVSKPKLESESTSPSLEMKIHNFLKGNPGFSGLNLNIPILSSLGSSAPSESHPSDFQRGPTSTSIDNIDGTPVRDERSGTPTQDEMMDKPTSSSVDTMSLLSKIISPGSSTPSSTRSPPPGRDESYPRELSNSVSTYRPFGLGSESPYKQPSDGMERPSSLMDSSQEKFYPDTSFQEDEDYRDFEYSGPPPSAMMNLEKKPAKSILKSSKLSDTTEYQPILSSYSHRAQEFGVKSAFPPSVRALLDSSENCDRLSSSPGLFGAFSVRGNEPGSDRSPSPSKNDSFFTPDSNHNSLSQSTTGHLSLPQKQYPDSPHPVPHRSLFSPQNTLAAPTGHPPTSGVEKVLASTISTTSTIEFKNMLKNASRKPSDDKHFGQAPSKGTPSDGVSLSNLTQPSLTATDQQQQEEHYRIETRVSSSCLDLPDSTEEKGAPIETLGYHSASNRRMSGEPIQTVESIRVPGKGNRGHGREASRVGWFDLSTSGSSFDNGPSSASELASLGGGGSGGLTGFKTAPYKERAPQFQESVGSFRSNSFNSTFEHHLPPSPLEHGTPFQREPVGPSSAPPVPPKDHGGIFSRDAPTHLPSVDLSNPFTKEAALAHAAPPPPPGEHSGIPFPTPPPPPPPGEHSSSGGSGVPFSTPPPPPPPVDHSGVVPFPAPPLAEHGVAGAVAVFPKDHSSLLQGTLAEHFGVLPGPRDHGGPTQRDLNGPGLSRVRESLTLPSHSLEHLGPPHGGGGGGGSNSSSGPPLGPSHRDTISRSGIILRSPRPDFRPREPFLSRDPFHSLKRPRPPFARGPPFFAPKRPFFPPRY
UniProt Q07955: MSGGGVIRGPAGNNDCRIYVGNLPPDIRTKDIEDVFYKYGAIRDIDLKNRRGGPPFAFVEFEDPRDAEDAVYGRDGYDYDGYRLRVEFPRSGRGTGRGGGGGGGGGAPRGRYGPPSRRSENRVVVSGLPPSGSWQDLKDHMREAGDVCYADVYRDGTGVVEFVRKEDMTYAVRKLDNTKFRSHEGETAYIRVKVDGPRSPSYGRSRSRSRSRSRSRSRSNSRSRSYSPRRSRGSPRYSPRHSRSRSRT

Target: T1, hypermethylated in cancer 1 (HIC1) (human) (UniProt Q14526)
T1 sequence: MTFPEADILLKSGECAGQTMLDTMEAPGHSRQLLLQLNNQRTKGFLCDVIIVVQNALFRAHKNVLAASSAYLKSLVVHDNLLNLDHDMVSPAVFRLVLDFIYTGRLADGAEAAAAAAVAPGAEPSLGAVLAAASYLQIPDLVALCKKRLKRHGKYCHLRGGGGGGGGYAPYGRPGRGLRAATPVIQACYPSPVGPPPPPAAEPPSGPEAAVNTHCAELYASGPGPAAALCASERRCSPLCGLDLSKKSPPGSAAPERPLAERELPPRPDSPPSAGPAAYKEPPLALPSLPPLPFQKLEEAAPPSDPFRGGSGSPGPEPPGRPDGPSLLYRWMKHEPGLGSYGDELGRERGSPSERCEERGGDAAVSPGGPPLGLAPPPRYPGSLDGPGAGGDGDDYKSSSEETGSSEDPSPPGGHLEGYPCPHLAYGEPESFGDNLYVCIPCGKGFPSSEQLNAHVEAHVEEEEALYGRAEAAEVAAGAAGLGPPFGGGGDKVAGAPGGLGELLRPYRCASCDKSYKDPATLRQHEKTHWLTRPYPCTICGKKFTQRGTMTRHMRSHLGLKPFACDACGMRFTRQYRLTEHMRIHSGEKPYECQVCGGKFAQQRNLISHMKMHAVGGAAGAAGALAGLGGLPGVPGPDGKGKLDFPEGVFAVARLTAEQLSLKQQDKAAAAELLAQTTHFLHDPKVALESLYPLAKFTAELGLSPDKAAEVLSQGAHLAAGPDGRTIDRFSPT
Test: affinity purification with mass spectrometry

BCLAF1 (from UniProt Q9NYF8 1-920)
binding: binds

E3 Ubiquitin-Protein Ligase HERC2 (from UniProt O95714 1-4834) (enzyme)
binding: binds

EPRS (from UniProt P07814 1-1512) (enzyme)
binding: binds

KARS (from UniProt Q15046 1-597) (enzyme)
binding: binds

LARS (from UniProt Q9P2J5 1-1176) (enzyme)
binding: binds

PARP13 (from UniProt Q7Z2W4 1-902)
binding: binds

RPRD2 (from UniProt Q5VT52 1-1461)
binding: binds

splicing factor SRSF1 (from UniProt Q07955 1-248)
binding: binds

B1: ARS-interacting multi-functional protein AIMP1 (protein, UniProt Q12904 1-312)
chain: MANNDAVLKRLEQKGAEADQIIEYLKQQVSLLKEKAILQATLREEKKLRVENAKLKKEIEELKQELIQAEIQNGVKQIPFPSGTPLHANSMVSENVIQSTAVTTVSSGTKEQIKGGTGDEKKAKEKIEKKGEKKEKKQQSIAGSADSKPIDVSRLDLRIGCIITARKHPDADSLYVEEVDVGEIAPRTVVSGLVNHVPLEQMQNRMVILLCNLKPAKMRGVLSQAMVMCASSPEKIEILAPPNGSVPGDRITFDAFPGEPDKELNPKKKIWEQIQPDLHTNDECVATYKGVPFEVKGKGVCRAQTMSNSGIK
binding: binds

B2: ARS-interacting multi-functional protein AIMP2 (protein, UniProt Q13155 1-320)
chain: MPMYQVKPYHGGGAPLRVELPTCMYRLPNVHGRSYGPAPGAGHVQEESNLSLQALESRQDDILKRLYELKAAVDGLSKMIQTPDADLDVTNIIQADEPTTLTTNALDLNSVLGKDYGALKDIVINANPASPPLSLLVLHRLLCEHFRVLSTVHTHSSVKSVPENLLKCFGEQNKKQPRQDYQLGFTLIWKNVPKTQMKFSIQTMCPIEGEGNIARFLFSLFGQKHNAVNATLIDSWVDIAIFQLKEGSSKEKAAVFRSMNSALGKSPWLAGNELTVADVVLWSVLQQIGGCSVTVPANVQRWMRSCENLAPFNTALKLLK
binding: binds

B3: RPRD1B (CREPT) (protein, UniProt Q9NQG5 1-326)
chain: MSSFSESALEKKLSELSNSQQSVQTLSLWLIHHRKHAGPIVSVWHRELRKAKSNRKLTFLYLANDVIQNSKRKGPEFTREFESVLVDAFSHVAREADEGCKKPLERLLNIWQERSVYGGEFIQQLKLSMEDSKSPPPKATEEKKSLKRTFQQIQEEEDDDYPGSYSPQDPSAGPLLTEELIKALQDLENAASGDATVRQKIASLPQEVQDVSLLEKITDKEAAERLSKTVDEACLLLAEYNGRLAAELEDRRQLARMLVEYTQNQKDVLSEKEKKLEEYKQKLARVTQVRKELKSHIQSLPDLSLLPNVTGGLAPLPSAGDLFSTD
binding: binds

B4: DHX30 (protein, UniProt Q7L2E3 1-1194)
chain: MFSLDSFRKDRAQHRQRQCKLPPPRLPPMCVNPTPGGTISRASRDLLKEFPQPKNLLNSVIGRALGISHAKDKLVYVHTNGPKKKKVTLHIKWPKSVEVEGYGSKKIDAERQAAAAACQLFKGWGLLGPRNELFDAAKYRVLADRFGSPADSWWRPEPTMPPTSWRQLNPESIRPGGPGGLSRSLGREEEEDEEEELEEGTIDVTDFLSMTQQDSHAPLRDSRGSSFEMTDDDSAIRALTQFPLPKNLLAKVIQIATSSSTAKNLMQFHTVGTKTKLSTLTLLWPCPMTFVAKGRRKAEAENKAAALACKKLKSLGLVDRNNEPLTHAMYNLASLRELGETQRRPCTIQVPEPILRKIETFLNHYPVESSWIAPELRLQSDDILPLGKDSGPLSDPITGKPYVPLLEAEEVRLSQSLLELWRRRGPVWQEAPQLPVDPHRDTILNAIEQHPVVVISGDTGCGKTTRIPQLLLERYVTEGRGARCNVIITQPRRISAVSVAQRVSHELGPSLRRNVGFQVRLESKPPSRGGALLFCTVGILLRKLQSNPSLEGVSHVIVDEVHERDVNTDFLLILLKGLQRLNPALRLVLMSATGDNERFSRYFGGCPVIKVPGFMYPVKEHYLEDILAKLGKHQYLHRHRHHESEDECALDLDLVTDLVLHIDARGEPGGILCFLPGWQEIKGVQQRLQEALGMHESKYLILPVHSNIPMMDQKAIFQQPPVGVRKIVLATNIAETSITINDIVHVVDSGLHKEERYDLKTKVSCLETVWVSRANVIQRRGRAGRCQSGFAYHLFPRSRLEKMVPFQVPEILRTPLENLVLQAKIHMPEKTAVEFLSKAVDSPNIKAVDEAVILLQEIGVLDQREYLTTLGQRLAHISTDPRLAKAIVLAAIFRCLHPLLVVVSCLTRDPFSSSLQNRAEVDKVKALLSHDSGSDHLAFVRAVAGWEEVLRWQDRSSRENYLEENLLYAPSLRFIHGLIKQFSENIYEAFLVGKPSDCTLASAQCNEYSEEEELVKGVLMAGLYPNLIQVRQGKVTRQGKFKPNSVTYRTKSGNILLHKSTINREATRLRSRWLTYFMAVKSNGSVFVRDSSQVHPLAVLLLTDGDVHIRDDGRRATISLSDSDLLRLEGDSRTVRLLKELRRALGRMVERSLRSELAALPPSVQEEHGQLLALLAELLRGPCGSFDVRKTADD
binding: binds

B5: DARS (enzyme, UniProt P14868 1-501)
chain: MPSASASRKSQEKPREIMDAAEDYAKERYGISSMIQSQEKPDRVLVRVRDLTIQKADEVVWVRARVHTSRAKGKQCFLVLRQQQFNVQALVAVGDHASKQMVKFAANINKESIVDVEGVVRKVNQKIGSCTQQDVELHVQKIYVISLAEPRLPLQLDDAVRPEAEGEEEGRATVNQDTRLDNRVIDLRTSTSQAVFRLQSGICHLFRETLINKGFVEIQTPKIISAASEGGANVFTVSYFKNNAYLAQSPQLYKQMCICADFEKVFSIGPVFRAEDSNTHRHLTEFVGLDIEMAFNYHYHEVMEEIADTMVQIFKGLQERFQTEIQTVNKQFPCEPFKFLEPTLRLEYCEALAMLREAGVEMGDEDDLSTPNEKLLGHLVKEKYDTDFYILDKYPLAVRPFYTMPDPRNPKQSNSYDMFMRGEEILSGAQRIHDPQLLTERALHHGIDLEKIKAYIDSFRFGAPPHAGGGIGLERVTMLFLGLHNVRQTSMFPRDPKRLTP
binding: binds

B6: IARS (enzyme, UniProt P41252 1-1262)
chain: MLQQVPENINFPAEEEKILEFWTEFNCFQECLKQSKHKPKFTFYDGPPFATGLPHYGHILAGTIKDIVTRYAHQSGFHVDRRFGWDCHGLPVEYEIDKTLGIRGPEDVAKMGITEYNNQCRAIVMRYSAEWKSTVSRLGRWIDFDNDYKTLYPQFMESVWWVFKQLYDKGLVYRGVKVMPFSTACNTPLSNFESHQNYKDVQDPSVFVTFPLEEDETVSLVAWTTTPWTLPSNLAVCVNPEMQYVKIKDVARGRLLILMEARLSALYKLESDYEILERFPGAYLKGKKYRPLFDYFLKCKENGAFTVLVDNYVKEEEGTGVVHQAPYFGAEDYRVCMDFNIIRKDSLPVCPVDASGCFTTEVTDFAGQYVKDADKSIIRTLKEQGRLLVATTFTHSYPFCWRSDTPLIYKAVPSWFVRVENMVDQLLRNNDLCYWVPELVREKRFGNWLKDARDWTISRNRYWGTPIPLWVSDDFEEVVCIGSVAELEELSGAKISDLHRESVDHLTIPSRCGKGSLHRISEVFDCWFESGSMPYAQVHYPFENKREFEDAFPADFIAEGIDQTRGWFYTLLVLATALFGQPPFKNVIVNGLVLASDGQKMSKRKKNYPDPVSIIQKYGADALRLYLINSPVVRAENLRFKEEGVRDVLKDVLLPWYNAYRFLIQNVLRLQKEEEIEFLYNENTVRESPNITDRWILSFMQSLIGFFETEMAAYRLYTVVPRLVKFVDILTNWYVRMNRRRLKGENGMEDCVMALETLFSVLLSLCRLMAPYTPFLTELMYQNLKVLIDPVSVQDKDTLSIHYLMLPRVREELIDKKTESAVSQMQSVIELGRVIRDRKTIPIKYPLKEIVVIHQDPEALKDIKSLEKYIIEELNVRKVTLSTDKNKYGIRLRAEPDHMVLGKRLKGAFKAVMTSIKQLSSEELEQFQKTGTIVVEGHELHDEDIRLMYTFDQATGGTAQFEAHSDAQALVLLDVTPDQSMVDEGMAREVINRIQKLRKKCNLVPTDEITVYYKAKSEGTYLNSVIESHTEFIFTTIKAPLKPYPVSPSDKVLIQEKTQLKGSELEITLTRGSSLPGPACAYVNLNICANGSEQGGVLLLENPKGDNRLDLLKLKSVVTSIFGVKNTELAVFHDETEIQNQTDLLSLSGKTLCVTAGSAPSLINSSSTLLCQYINLQLLNAKPQECLMGTVGTLLLENPLGQNGLTHQGLLYEAAKVFGLRSRKLKLFLNETQTQEITEDIPVKTLNMKTVYVSVLPTTADF
binding: binds

B7: QARS (enzyme, UniProt P47897 1-775)
chain: MAALDSLSLFTSLGLSEQKARETLKNSALSAQLREAATQAQQTLGSTIDKATGILLYGLASRLRDTRRLSFLVSYIASKKIHTEPQLSAALEYVRSHPLDPIDTVDFERECGVGVIVTPEQIEEAVEAAINRHRPQLLVERYHFNMGLLMGEARAVLKWADGKMIKNEVDMQVLHLLGPKLEADLEKKFKVAKARLEETDRRTAKDVVENGETADQTLSLMEQLRGEALKFHKPGENYKTPGYVVTPHTMNLLKQHLEITGGQVRTRFPPEPNGILHIGHAKAINFNFGYAKANNGICFLRFDDTNPEKEEAKFFTAICDMVAWLGYTPYKVTYASDYFDQLYAWAVELIRRGLAYVCHQRGEELKGHNTLPSPWRDRPMEESLLLFEAMRKGKFSEGEATLRMKLVMEDGKMDPVAYRVKYTPHHRTGDKWCIYPTYDYTHCLCDSIEHITHSLCTKEFQARRSSYFWLCNALDVYCPVQWEYGRLNLHYAVVSKRKILQLVATGAVRDWDDPRLFTLTALRRRGFPPEAINNFCARVGVTVAQTTMEPHLLEACVRDVLNDTAPRAMAVLESLRVIITNFPAAKSLDIQVPNFPADETKGFHQVPFAPIVFIERTDFKEEPEPGFKRLAWGQPVGLRHTGYVIELQHVVKGPSGCVESLEVTCRRADAGEKPKAFIHWVSQPLMCEVRLYERLFQHKNPEDPTEVPGGFLSDLNLASLHVVDAALVDCSVALAKPFDKFQFERLGYFSVDPDSHQGKLVFNRTVTLKEDPGKV
binding: binds

No constants are given. Whether binding was seen depends on the method and setting. Binding seen in cells or lysates may run through a third protein. Here binding means that the protein was enriched with, or labelled near, the bait; the list need not be complete.
